Assay [1] concerns the target WT GFP-MAGEL2 (GFPspark fused N-terminally to full-length wild-type human MAGEL2) (human) (UniProt Q9UJ55). Description: affinity purification with mass spectrometry; GFP-CoIP: GFPspark-MAGEL2 fusions transiently expressed in HEK293T; IP lysis buffer (25 mM Tris-HCl pH 7.4, 150 mM NaCl, 1 mM EDTA, 1% Igepal CA-630, 5% glycerol); anti-GFP covalently coupled to Protein A beads, overnight at 4 C; elution with 2% formic acid; LC-MS/MS; proteins in at least two of three replicates.

Chains of the proteins cited; added tags and fusions are not shown.
UniProt Q9UJ55: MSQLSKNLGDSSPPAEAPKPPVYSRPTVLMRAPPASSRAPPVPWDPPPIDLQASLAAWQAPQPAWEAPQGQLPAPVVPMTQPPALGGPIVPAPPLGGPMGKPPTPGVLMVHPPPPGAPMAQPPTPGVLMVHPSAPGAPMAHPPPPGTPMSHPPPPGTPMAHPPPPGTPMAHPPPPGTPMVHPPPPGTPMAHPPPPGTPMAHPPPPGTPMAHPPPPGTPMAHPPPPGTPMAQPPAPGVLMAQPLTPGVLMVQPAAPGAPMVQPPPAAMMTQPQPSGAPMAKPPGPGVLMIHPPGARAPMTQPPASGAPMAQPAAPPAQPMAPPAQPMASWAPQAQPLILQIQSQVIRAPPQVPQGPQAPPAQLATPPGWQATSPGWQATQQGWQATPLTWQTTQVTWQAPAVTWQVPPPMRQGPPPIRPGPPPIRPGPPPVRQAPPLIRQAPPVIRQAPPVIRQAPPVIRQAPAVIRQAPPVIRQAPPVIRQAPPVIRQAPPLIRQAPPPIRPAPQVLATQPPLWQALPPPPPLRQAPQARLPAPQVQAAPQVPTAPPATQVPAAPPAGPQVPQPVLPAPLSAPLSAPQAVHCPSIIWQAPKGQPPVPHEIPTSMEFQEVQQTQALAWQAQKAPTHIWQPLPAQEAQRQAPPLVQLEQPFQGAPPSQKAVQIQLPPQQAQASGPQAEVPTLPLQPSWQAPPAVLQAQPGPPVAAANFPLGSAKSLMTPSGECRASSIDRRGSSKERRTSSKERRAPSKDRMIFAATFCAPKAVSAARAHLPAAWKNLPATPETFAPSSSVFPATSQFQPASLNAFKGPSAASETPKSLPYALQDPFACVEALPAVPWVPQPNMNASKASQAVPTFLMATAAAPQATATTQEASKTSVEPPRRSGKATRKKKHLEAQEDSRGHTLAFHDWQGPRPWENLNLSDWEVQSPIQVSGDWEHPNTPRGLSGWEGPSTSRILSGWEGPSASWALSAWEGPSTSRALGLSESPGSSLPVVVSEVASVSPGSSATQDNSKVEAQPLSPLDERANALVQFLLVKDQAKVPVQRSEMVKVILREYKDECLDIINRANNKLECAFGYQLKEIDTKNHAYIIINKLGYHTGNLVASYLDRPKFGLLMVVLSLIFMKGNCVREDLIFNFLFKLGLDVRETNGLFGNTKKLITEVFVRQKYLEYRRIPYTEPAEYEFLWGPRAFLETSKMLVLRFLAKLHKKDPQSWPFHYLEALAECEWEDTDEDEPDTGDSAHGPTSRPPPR
UniProt Q15717: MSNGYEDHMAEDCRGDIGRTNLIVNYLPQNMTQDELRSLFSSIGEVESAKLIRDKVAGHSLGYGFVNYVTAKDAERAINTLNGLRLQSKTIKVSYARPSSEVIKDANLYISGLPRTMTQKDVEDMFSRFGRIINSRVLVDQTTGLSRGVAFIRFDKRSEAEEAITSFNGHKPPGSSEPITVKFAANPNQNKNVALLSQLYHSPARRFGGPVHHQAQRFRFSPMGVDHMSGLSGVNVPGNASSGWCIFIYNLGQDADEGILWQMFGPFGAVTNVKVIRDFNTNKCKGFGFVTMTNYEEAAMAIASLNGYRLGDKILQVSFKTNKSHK
UniProt P35637: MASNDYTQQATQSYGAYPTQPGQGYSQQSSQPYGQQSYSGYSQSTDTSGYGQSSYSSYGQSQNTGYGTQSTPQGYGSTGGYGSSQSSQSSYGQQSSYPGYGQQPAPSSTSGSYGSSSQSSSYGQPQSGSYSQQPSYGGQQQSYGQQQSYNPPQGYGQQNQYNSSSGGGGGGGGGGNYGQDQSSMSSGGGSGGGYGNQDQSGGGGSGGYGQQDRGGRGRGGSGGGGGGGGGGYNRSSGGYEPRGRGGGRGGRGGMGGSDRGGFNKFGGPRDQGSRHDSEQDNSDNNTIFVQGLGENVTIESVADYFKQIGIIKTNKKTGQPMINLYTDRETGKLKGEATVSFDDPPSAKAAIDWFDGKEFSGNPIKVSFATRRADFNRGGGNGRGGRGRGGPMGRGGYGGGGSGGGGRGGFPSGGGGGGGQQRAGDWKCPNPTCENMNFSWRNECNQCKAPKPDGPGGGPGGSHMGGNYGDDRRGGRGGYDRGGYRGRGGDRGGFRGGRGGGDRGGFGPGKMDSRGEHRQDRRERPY
UniProt P17096: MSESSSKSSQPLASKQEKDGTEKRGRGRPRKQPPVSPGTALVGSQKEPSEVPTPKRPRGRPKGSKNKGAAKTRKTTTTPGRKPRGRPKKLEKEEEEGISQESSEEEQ
UniProt P11940: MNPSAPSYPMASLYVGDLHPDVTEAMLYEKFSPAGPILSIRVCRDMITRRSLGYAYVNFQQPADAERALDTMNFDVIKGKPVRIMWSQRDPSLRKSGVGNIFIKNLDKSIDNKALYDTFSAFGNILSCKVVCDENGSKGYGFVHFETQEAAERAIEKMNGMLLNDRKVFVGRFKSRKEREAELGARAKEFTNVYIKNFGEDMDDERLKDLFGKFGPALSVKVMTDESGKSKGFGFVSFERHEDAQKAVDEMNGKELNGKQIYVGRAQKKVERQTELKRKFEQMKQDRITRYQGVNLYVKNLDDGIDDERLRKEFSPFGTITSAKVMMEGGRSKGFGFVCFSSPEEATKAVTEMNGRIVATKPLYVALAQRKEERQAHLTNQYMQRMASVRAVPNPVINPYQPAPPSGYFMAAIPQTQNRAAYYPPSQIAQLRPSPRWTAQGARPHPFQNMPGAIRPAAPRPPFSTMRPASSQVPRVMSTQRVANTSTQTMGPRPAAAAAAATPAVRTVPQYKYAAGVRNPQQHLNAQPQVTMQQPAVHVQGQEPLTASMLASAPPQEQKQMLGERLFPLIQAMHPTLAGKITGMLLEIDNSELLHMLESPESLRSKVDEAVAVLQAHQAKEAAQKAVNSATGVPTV
UniProt P67809: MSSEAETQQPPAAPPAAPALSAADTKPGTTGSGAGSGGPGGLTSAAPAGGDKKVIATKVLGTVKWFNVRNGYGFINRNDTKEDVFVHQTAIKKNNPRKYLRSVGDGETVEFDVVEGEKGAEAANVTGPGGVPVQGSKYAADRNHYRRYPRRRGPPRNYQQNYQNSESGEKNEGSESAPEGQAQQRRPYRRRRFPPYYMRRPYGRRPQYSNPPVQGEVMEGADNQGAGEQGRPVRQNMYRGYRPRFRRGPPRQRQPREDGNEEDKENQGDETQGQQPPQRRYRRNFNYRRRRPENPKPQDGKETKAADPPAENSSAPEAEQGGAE
UniProt P07305: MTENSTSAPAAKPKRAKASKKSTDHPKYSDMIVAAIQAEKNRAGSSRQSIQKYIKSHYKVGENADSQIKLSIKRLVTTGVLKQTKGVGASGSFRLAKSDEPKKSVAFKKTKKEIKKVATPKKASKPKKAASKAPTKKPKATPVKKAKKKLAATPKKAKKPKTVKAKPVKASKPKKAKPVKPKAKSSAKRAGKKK
UniProt P16403: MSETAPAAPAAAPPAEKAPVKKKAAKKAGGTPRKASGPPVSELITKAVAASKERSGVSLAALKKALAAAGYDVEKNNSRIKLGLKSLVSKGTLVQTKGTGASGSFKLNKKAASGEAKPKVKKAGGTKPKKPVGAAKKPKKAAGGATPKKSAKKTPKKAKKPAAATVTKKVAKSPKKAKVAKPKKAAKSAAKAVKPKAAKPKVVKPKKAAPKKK
UniProt P16402: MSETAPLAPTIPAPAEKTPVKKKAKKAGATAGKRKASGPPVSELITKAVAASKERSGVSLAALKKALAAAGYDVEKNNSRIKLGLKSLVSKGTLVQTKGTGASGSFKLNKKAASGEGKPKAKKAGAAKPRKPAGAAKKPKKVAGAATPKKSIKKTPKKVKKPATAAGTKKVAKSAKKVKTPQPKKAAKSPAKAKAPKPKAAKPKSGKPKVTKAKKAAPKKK
UniProt Q92522: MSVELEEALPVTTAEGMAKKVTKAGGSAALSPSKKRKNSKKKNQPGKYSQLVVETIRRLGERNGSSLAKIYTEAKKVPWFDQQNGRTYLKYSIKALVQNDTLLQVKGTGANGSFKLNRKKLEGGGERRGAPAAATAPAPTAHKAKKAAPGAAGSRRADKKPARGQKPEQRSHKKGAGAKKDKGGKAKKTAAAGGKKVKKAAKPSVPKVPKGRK

The target of assay [2] is HA-miniTurbo-MAGEL2 WT (biotin ligase fusion for BioID) (human) (UniProt Q9UJ55). Kind of assay: proximity labelling; BioID: HA-miniTurbo-MAGEL2 fusions transiently expressed in HEK293T; 200 uM biotin for 4 h in starvation medium; RIPA lysis; biotinylated proteins captured on streptavidin magnetic beads overnight at 4 C; LC-MS/MS; proteins in at least two of three replicates.

Binding data for twelve molecules are collected here from publication PMC11267527.

No constants are given. Whether binding was seen depends on the method and setting. In cells and extracts the contact can be indirect. A yes stands for co-enrichment or nearness to the bait. Other partners may have been found.

Regarding ELAVL1 (from UniProt Q15717 1-326), the binding entry in assay [1] and in assay [2] was “binds” each time.

As to FUS (from UniProt P35637 1-526), the binding result in assay [1] and in assay [2] was “binds” each time.

HMGA1 (from UniProt P17096 1-107): the binding result in assay [1] and in assay [2] was “binds” in each case.

For PABPC1 (from UniProt P11940 1-636), the binding result in assay [1] and in assay [2] was “binds” in each case.

Consider YBX1 (from UniProt P67809 1-324), for which the binding result in assay [1] and in assay [2] was “binds” in each case.

For the molecule “histone H1.0 (from UniProt P07305 1-194)”, the binding entry in assay [1] and in assay [2] was “binds” each time.

With “histone H1.2 (from UniProt P16403 1-213)”, the binding entry in assay [1] and in assay [2] was “binds” in each case.

“histone H1.3 (from UniProt P16402 1-221)”: the binding result in assay [1] and in assay [2] was “binds” throughout.

On to “histone H1.10 (from UniProt Q92522 1-213)”, for which the binding entry in assay [1] and in assay [2] was “binds” each time.

B1: HNRNPA0 (protein, UniProt Q13151 1-305)
chain: MENSQLCKLFIGGLNVQTSESGLRGHFEAFGTLTDCVVVVNPQTKRSRCFGFVTYSNVEEADAAMAASPHAVDGNTVELKRAVSREDSARPGAHAKVKKLFVGGLKGDVAEGDLIEHFSQFGTVEKAEIIADKQSGKKRGFGFVYFQNHDAADKAAVVKFHPIQGHRVEVKKAVPKEDIYSGGGGGGSRSSRGGRGGRGRGGGRDQNGLSKGGGGGYNSYGGYGGGGGGGYNAYGGGGGGSSYGGSDYGNGFGGFGSYSQHQSSYGPMKSGGGGGGGGSSWGGRSNSGPYRGGYGGGGGYGGSSF
B1: the binding entry in assay [1] and in assay [2] was “binds” throughout.

B2: ILF3 (protein, UniProt Q12906 1-894)
chain: MRPMRIFVNDDRHVMAKHSSVYPTQEELEAVQNMVSHTERALKAVSDWIDEQEKGSSEQAESDNMDVPPEDDSKEGAGEQKTEHMTRTLRGVMRVGLVAKGLLLKGDLDLELVLLCKEKPTTALLDKVADNLAIQLAAVTEDKYEILQSVDDAAIVIKNTKEPPLSLTIHLTSPVVREEMEKVLAGETLSVNDPPDVLDRQKCLAALASLRHAKWFQARANGLKSCVIVIRVLRDLCTRVPTWGPLRGWPLELLCEKSIGTANRPMGAGEALRRVLECLASGIVMPDGSGIYDPCEKEATDAIGHLDRQQREDITQSAQHALRLAAFGQLHKVLGMDPLPSKMPKKPKNENPVDYTVQIPPSTTYAITPMKRPMEEDGEEKSPSKKKKKIQKKEEKAEPPQAMNALMRLNQLKPGLQYKLVSQTGPVHAPIFTMSVEVDGNSFEASGPSKKTAKLHVAVKVLQDMGLPTGAEGRDSSKGEDSAEETEAKPAVVAPAPVVEAVSTPSAAFPSDATAEQGPILTKHGKNPVMELNEKRRGLKYELISETGGSHDKRFVMEVEVDGQKFQGAGSNKKVAKAYAALAALEKLFPDTPLALDANKKKRAPVPVRGGPKFAAKPHNPGFGMGGPMHNEVPPPPNLRGRGRGGSIRGRGRGRGFGGANHGGYMNAGAGYGSYGYGGNSATAGYSQFYSNGGHSGNASGGGGGGGGGSSGYGSYYQGDNYNSPVPPKHAGKKQPHGGQQKPSYGSGYQSHQGQQQSYNQSPYSNYGPPQGKQKGYNHGQGSYSYSNSYNSPGGGGGSDYNYESKFNYSGSGGRSGGNSYGSGGASYNPGSHGGYGGGSGGGSSYQGKQGGYSQSNYNSPGSGQNYSGPPSSYQSSQGGYGRNADHSMNYQYR
As for B2, the binding result in assay [1] and in assay [2] was “binds” throughout.

B3: HMGN1 (protein, UniProt P05114 1-100)
chain: MPKRKVSSAEGAAKEEPKRRSARLSAKPPAKVEAKPKKAAAKDKSSDKKVQTKGKRGAKGKQAEVANQETKEDLPAENGETKTEESPASDEAGEKEAKSD
As to B3, the binding result in assay [1] and in assay [2] was “binds” each time.
